# Assay results from PubChem BioAssay AID1671190 (National Center for Advancing Translational Sciences (NCATS), 2021).
# Chains of the proteins cited; added tags and fusions are not shown. Lines headed by an entry give the natural chain unless they say otherwise; changes in a name come on top.
# UniProt P18054: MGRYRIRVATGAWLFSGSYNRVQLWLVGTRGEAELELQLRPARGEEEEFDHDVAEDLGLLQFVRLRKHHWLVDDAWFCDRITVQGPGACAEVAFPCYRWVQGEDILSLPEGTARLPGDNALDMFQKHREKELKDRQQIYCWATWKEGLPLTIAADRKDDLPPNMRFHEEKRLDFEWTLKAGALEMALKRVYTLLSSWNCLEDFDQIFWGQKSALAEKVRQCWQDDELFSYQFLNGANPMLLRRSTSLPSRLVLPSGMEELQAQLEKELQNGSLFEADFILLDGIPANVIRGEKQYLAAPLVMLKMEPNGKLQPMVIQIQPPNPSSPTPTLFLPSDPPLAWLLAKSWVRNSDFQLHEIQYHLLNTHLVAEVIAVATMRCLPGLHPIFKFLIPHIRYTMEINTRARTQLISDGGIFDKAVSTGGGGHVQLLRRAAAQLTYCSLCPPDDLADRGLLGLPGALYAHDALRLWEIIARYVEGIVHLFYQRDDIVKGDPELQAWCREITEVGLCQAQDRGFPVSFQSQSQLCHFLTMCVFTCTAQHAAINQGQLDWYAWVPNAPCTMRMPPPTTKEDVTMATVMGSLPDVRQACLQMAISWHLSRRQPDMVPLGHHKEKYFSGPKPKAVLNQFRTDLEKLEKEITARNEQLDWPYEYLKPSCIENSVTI
# Hit rate of the full screen: of about 580,000 compounds, about 6,100 (1.1%) were called active. This list was built around the results that the source calls inconclusive (neither active nor inactive); the mix of calls is not that of the screen. Calls follow the shape of the dose curve; as a rule, active = well fitted inhibition curve with a large enough effect; inconclusive = small, poorly fitted or top-dose-only effect, or another doubt; inactive = no such curve, though single readings can be large or run the other way. Where the call is inconclusive, the potency comes from a doubtful curve fit.
# Biological target: Polyunsaturated fatty acid lipoxygenase ALOX12 (Homo sapiens) (UniProt P18054)
# Assay: Primary qHTS assay for inhibitors of human arachidonate 12S-lipoxygenase (ALOX12): Round 2
# Conditions: purified 12hLO, xylenol orange hydroperoxide absorbance; series mostly up to 108 µM
# Method in brief: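 Hydroperoxide product was detected by ferrous iron/xylenol orange as the 573 to 405 nm absorbance ratio. Arachidonic acid at 40 uM (final) was turned over for 30 min at room temperature by 150 nM human 12hLO, pH 7.0 Hepes buffer, after 15 min compound preincubation.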
# Potency is read from the fitted curve at half-maximal effect.
row,Structure (SMILES),Potency
1,CN1CCN(c2ncc3nc(-c4cc(F)cc(F)c4)c(=O)n(CCc4ccccc4)c3n2)CC1,"inconclusive: 39.8 µM [inhibitor, partial curve, poor fit]"
2,COc1ccc(-c2ccc3nc(-c4cccc(F)c4)oc3c2)c(OC)c1OC,"inconclusive: 4.47 µM [inhibitor, full curve]"
3,CN(C)c1nc(N)nc(CSc2ccccn2)n1,"inconclusive: 39.8 µM [inhibitor, partial curve, poor fit]"
4,CN(CCc1cn[nH]c1)C(=O)C1CCC(=O)N(CC2CCCCC2)C1 (centres undefined),inactive
5,CSC1=N/C(=C\c2cccc(OCc3ccccc3)c2)C(=O)S1,"inconclusive: 31.6 µM [inhibitor, partial curve]"
6,CC(=O)Nc1ccc(C(=O)COC(=O)c2nc3nc(C)cc(C)n3n2)cc1,active: 39.8 µM
7,Cn1c(SSc2ccc(-c3cccnc3)n2C)ccc1-c1cccnc1,"inconclusive: 70.8 µM [inhibitor, single point]"
8,Cc1nc2ccc(S(=O)(=O)NC(C(=O)N3CCC(C)CC3)C(C)C)cc2s1 (centres undefined),inactive
9,CCCCNC(=O)c1nc(-c2cccnc2)oc1-c1ccc(OC(F)(F)F)cc1,inactive
10,Cc1cccc(N2CCN(C(=O)C3CCC(CNS(=O)(=O)c4ccc(Br)s4)CC3)CC2)c1C (centres undefined),"inconclusive: 63.1 µM [inhibitor, partial curve, poor fit]"
11,Cc1cc2nc(CSc3ccc(NC(=O)C(C)C)cc3)c(=O)[nH]c2cc1C,"inconclusive: 6.31 µM [inhibitor, full curve, poor fit]"
12,N#CC(C#N)=Cc1cn(-c2ncc(C(F)(F)F)cc2Cl)c2ccccc12,inactive
13,O=C(Nc1nnc(CCN2CCOCC2)s1)C1CCCCC1,"inconclusive: 50.1 µM [inhibitor, partial curve, poor fit]"
14,CCC(C)(C)n1nnnc1C(c1ccccc1OC)N1CCN(C(=O)c2ccco2)CC1 (centres undefined),inactive
15,COc1ccc(C2=C(C)C(N3CCC(C(=O)Nc4ccc(F)cc4C)CC3)=NS2(=O)=O)cc1,"inconclusive: 126 µM [inhibitor, partial curve, poor fit]"
16,CC(NC(=O)C12CC3CC(CC(Cl)(C3)C1)C2)c1cccc(Cl)c1 (centres undefined),"inconclusive: 79.4 µM [inhibitor, partial curve, poor fit]"
17,Nc1ccc(Br)cc1-c1ccccc1,inactive
18,CCCc1nc2c3ccccc3ccn2c1Cc1ccc(C)cc1,"inconclusive: 31.6 µM [inhibitor, partial curve, poor fit]"
19,COc1ccc(-c2c(C)nn(-c3ccccc3)c2N)cc1OC,inactive
